Reference: publication PMC4935465
These are yes or no findings as the source states them, for the method shown. Binding seen in cells or lysates may run through a third protein. A yes stands for co-enrichment or nearness to the bait. Other partners may have been found. A no says only that the protein was not detected with the bait. Tags and fused reporters may be left off the sequences shown.

T1: Vps8-HA (Drosophila melanogaster) (UniProt Q9VRX2)
T1 sequence: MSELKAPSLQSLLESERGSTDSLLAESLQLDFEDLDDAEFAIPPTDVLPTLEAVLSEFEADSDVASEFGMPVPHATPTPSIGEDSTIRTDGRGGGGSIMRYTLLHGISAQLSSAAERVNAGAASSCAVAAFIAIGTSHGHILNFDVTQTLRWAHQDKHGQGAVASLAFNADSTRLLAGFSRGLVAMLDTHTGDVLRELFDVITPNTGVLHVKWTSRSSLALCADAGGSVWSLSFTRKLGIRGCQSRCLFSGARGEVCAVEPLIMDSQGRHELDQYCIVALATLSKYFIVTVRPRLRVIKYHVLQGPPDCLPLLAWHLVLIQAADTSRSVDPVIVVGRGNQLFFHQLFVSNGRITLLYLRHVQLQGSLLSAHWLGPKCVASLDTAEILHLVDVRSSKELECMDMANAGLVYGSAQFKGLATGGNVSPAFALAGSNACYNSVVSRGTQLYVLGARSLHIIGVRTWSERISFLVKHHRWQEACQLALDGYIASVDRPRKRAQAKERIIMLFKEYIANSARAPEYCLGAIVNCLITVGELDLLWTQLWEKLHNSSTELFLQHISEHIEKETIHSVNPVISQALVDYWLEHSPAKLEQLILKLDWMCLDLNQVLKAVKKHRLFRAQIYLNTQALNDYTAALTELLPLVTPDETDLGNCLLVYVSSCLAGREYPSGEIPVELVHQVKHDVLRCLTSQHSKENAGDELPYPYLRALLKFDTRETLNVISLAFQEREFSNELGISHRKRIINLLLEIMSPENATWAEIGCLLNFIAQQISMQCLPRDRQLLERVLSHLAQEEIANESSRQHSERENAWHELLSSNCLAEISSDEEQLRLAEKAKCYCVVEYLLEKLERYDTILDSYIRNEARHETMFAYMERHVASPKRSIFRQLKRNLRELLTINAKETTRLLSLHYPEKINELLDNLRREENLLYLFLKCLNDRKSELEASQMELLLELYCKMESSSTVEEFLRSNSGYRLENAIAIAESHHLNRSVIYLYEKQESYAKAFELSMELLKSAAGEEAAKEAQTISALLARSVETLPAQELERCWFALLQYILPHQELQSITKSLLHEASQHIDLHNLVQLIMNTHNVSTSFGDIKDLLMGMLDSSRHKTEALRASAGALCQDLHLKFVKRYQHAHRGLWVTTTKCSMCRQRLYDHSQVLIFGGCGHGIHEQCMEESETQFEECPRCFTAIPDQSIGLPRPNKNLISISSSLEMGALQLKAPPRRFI

B1: Vps16A (protein, UniProt Q9VHG1 1-833)
chain: MPIMYNTGEWFKVRPDYYRKVELATPDWPLDLDLEYMWVEVAPYGGPLAVTRDPTKLVPVKGNARPMIRIFDTTGREMGHILWNHGKLIAMGWSDMEELICIQENATVFVYDMFGREKESYSIGDEASVTKIVEGKVFQSSAGTGVAVMTTSGRVFLKQNSSKTERKLPDIPNSSMNCSCWEIVTEGRNSYCLLGRDREVIKLFPGETVGTITANLFEKPHERIIKISVSYNHQHLALYTNTGLLWLGSVDMRQKYCEFDTGRKDMPLQMEWIMNSDNSEADAVVISYPSYLLIVNRNADRSDFPYDPVMFLVAEMDGVRIITQSSHEIIQRLPKCVENIFAVNSQEPASYLFEAQKKFEEKSYKSDEYLSMCREKIDLAVSECIEAASYEFCPETQKSLLRTAYFGKGFIRNHNPDEYMRIMRILRVLNTLRHERIAMPITFKQFSHLNTEVILSRLVFRKHYAIAIQVAKHLNLPESWILEHWAYHKVMNDPNDTEVARKITEKFKNPSVEGISFCNIASKAHQAGRDDLAIKLLELESRASLHVPLLLKMRKFDRAVGSATQSGDTELITQVLLEMKMHMMLSNLHMTIRDHPLALNIYKKIMRESNRAGLYGIYNTEDDQKAIAEYHFQNAIETEGLESNLSMIGNAYAQGRCTLEAELCADTSRLIKLQKTLSTKYNVSLNGLSIHETIQELLLIGELKEAERIRSEFKVPDRRFWWLRILTLSSQHKWEELEKLAKSKKSPIGYDPFVEVCLKQDNVMEARKYIPRCRDNRRVVWYMRANLFNEAIDSAFEQRDVHSLFELQKNQAIVNNGTLLSKVCDCIAMLEGK
B2: Dor/Vps18 (protein, UniProt Q24314 1-1002)
chain: MDTSMPNQPKFLPRIEHNSSGATANSYVATASGNPFETDEEDEIFSRHKMVLRVPSNCTGDLMHLAVSRNWLVCLLGTPERTTLLRFFLPRAIPPGEAVLEKYLSGSGYKITRMFLDPTGHHIIIALVPKSATAGVSPDFLYIHCLESPQAQQLKVRRIEKFKDHEITAVAFNPYHGNESSTGPILLGTSRGLIFETELNPAADGHVQRKQLYDLGLGRPKYPITGLKLLRVPNSSRYIIVVTSPECIYTFQETLKAEERSLQAIFAGYVSGVQEPHCEERKTDLTFSQLRFFAPPNSKYPKQWAWLCGEGIRVGELSIEANSAATLIGNTLINLDFEKTMHLSYGERRLNTPKAFVLTEYHAVLLYADHVRAICLLNQEQVYQEAFDEARVGKPLSIERDELTGSIYVYTVKTVFNLRVTREERNVWRIYLDKGQYELATAHAAEDPEHLQLVLCQRADAAFADGSYQVAADYYAETDKSFEEVCLKFMVLPDKRPIINYVKKRLSRVTTKPMETDELDEDKMNIIKALVIWLIDLYLIQINMPDKDEEWRSSWQTEYDEFMMEAHVLSCTRQNRETVRQLIAEHADPRNMAQFAIAIGDYDEVVAQQLKAECYAEALQTLINQRNPELFYKYAPELITRLPKPTVDALMAQGSRLEVEKLVPTLIIMENREQREQTQRYLEFAIYKLNTTNDAIHNFLLHLYAEHEPKLLMKYLEIQGRDESLVHYDIYYAHKVCTDLDVKEARVFLECMLRKWISAVDLALTFDMKLAKETASRPSDSKIRRKLWLRIAYHDIKGTNDVKKALNLLKECDLLRIEDLLPFFADFEKIDNFKEAICDALRDYNQRIQELQREMAETTEQTDRVTAELQQLRQHSLTVESQDTCEICEMMLLVKPFFIFICGHKFHSDCLEKHVVPLLTKEQCRRLGTLKQQLEAEVQTQAQPQSGALSKQQAMELQRKRAALKTEIEDILAADCLFCGLLISTIDQPFVDDWEQVNVEWE
B3: Car/Vps33A (protein, UniProt Q9Y1I2 1-617)
chain: MFPHLKGHGQRVNLQLLQEAACRELLQQLDRIEGSKVIVLDETMIGPLDLVTRPKLFADRGIRLLALKPELHLPREVANVVYVMRPRVALMEQLAAHVKAGGRAAAGRQYHILFAPRRSCLCVSQLEVSGVLGSFGNIEELAWNYLPLDVDLVSMEMPNAFRDVSVDGDTSSLYQAAVGLVQLQRLYGRIPKIYGKGEFAHRVWEHAKQLGRDERTLYNGDKGVVDQLILLDRSIDLLSPLATQLTYEGLIDEFYGIRQNKLTLPAENFPSDGALPGGGGSGPRVEESQSLLGDTEKKTILLHSGEQLYAELRNKHFNEVTKLLARKAREIHVQMHATSQDKSVQEIKSFVENLLPQLMAQKKATSEHTAIAGLLHEQVNAVRFADDLAAEQEFMVCADIDKPSAYIEDLIACRVELNRVLRLICMQCHAASGFKEKLLNHYKRELVHVYGLEVLLTISNLEKSGLLHLQTESRAYSVLRKTLHLTVDDNVEIEPKDISYVHSFYAPLTARIVEHSLKPLGWQTLKSQINNLPGPTFEDFQAQLVGIGGRHTVTTVSEGSLLNVPRVVLVCFVGGCTFAEIAALRFLAAQEDNNVEFLIATTKVVNKHSFLDSLMSS
B4: Vps11 (protein, UniProt Q8SX81 1-830)
chain: MDISVFEWKKVDLFNIIVVPFVKIPNTAEISCYCFPESKSSTEERNIKLVICDKNRNILIYLSNWECITFKSPSTRKAIALCSLTSNNSLATVTPDINNGIHIDIFDLNRLTKKQAAPIIASAYTQPSSTPLCLNADVIDDKLFALAIGLGNGDILLHYGKITKNFSANIRQHTVSGNAVNGIHFDFKTQPLDTTQIMFVTCVQGVYCFMLKEKCIMDTKFVLDNDKGNLNYRSIMCKAGGGEINDSMLVVGRADAVYCYTPEGRGPCFAIEGAKECLAWVGHYLIVGVKNSNLKQNATTLIVLDTENKIIVFQRQFQELFYVISENNFCYIVTNSGDTDACNMLMLEKNSIDVNIRLLVEKHMYNIALRLLHREGYTSSPETALVRFQYGNHLLQKGDFSRATQEFIKTIGFIKPYAVISKLLYSRYNTYLLNYLTEWKKKNESSSCHTRLIECCIKRDQIEHEMQQDDFKHYKSPAKIKHLATLSKMYFACTPSNQVPVEEEHLLHQLLEYGPASLAVDLTTYLNNITFENVKESKNILSFCSILADHNDYCAKMLAKIIEAFPVCDEKLLFYLLVFYFKLWRLDKVTSSFVSDFIKTHSLRMDKTIIVSRLYTFFNVTQRIHGHQKNTGTLHNETIDKCIENLIKNNPDVALNENLSKRSFLMMLKSSCSTEEIKAIKIKPIFKDRLLRSIVDSANELKLVENFNEKIKRSRSMLSLYTNNPIEFRNDKCDICREMLSMQSIYFLCQHSFHEECLNYKSTKRQEKFLCIICKTRNLLSPKHSSNFSCDSSDTIAVLAKIVSIGNKLETKLMIRGRQKSDGVTCNPFN
B5: Vps39 (protein, UniProt Q9VEA2 1-876)
chain: MHQAYSVHSILKQGVQIESIAAYGNHVILGTRSGQLIMYSVDEETGVDMRMFNKNFSRKPITQMEVIASENLLFVLTDLQVQVCDIRRIESNFAFMHSAPDTKGCTLFTMDVDTPKSTTGRVATVIRVCCAIRRRLVFFFWKEDKLNSLELIIELSDVPRTLCWVGHAVCVGFKDEYVVYDISGKAPKKHNLFLTSSSISRDPCICLIRNNMLGISKDSYLVVVDPSQYKESDGINNSTDVRPAAMDSNSSLTPLLWSSPLLDLVWDEPFAVGRVNNAIEVRSLVGKDTLVQTIPELQKTKFLVHADKGTIFAAATSELWCIRMVEIPIQRQQLLQQKKFQLAIELTQISDEPAADRAQTIRQIHMLYAKELFTNKEFSAAMKEFEKAAIDPYDVIRLFPNLVPEPKPGTEDVTVPTSSTPALEDSDLENAYLALIEYLAWARQREVVKLRDTKSSSKSLLEIIDTTLLKCYLQTNDSLVAPLLRLNQCHLEESEKTLKKHNKISELIILYQMKGKHKEALKLLREQASIEGSVLQGRKRTIRYLQELGGDHLPLIFEFADWVLNDNPEEGLTIFTDELIEVESLPRAKVLDFFISKHKALVIPYLEHVITEWKDGNTLLHNVLLKQYREKVQRLLAQQEKGEEVPELIPMRAKLYKMLEESNDYSPDRLLEEFPTNILLEERALILGRLKKHDNVLSIYIHVLGDVAKATAYAEAHYKEDKHIFHTLIKCILIPPTQPLYDGVPLHPDFSQVNREVALEILNTHATRIDPFEIFEHLPDDMPMPQLEKYLEKSIRKMMADKHEMQMMCGFLEAESTRLENALEEQRNISFELNESSVCSECKKRFQTQSAFVRYPNGHIVHLSCHDRLARAAAQQ

Molecular target: T1, Vps8-HA (Drosophila melanogaster)
Experiment: affinity purification with mass spectrometry; Vps8-HA precipitated with monoclonal anti-HA agarose from lysates of vps8-HA; vps8^1/Df adult flies (w^1118 as control); 50 mM Tris-HCl pH 7.5, 150 mM NaCl, 0.5 M EDTA (so in the source), 0.5% Triton X-100; 2 hr at 4°C; tryptic digestion, LC-MS/MS

Binder	binding
B1	binds
B2	binds
B3	binds
B4	no binding
B5	no binding
